{"source": "PubChem BioAssay AID743454 (Peter MacCallum Cancer Centre, 2014)", "aim": "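Search for knock-downs that restore vorinostat killing in resistant colon cancer cells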 (primary screen)", "cell system": "human HCT116-VR colon cancer cells, selected for vorinostat resistance", "reagent": "siRNA pool against human genes, 40 nM siRNA pool", "time to read-out": "vorinostat for 24 h, read-out about 72 h after transfection", "challenge": "vorinostat at 2.5 µM final", "measured": "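Two measures, CellTiter-Fluor viability and luminescent caspase 3/7 activity, each as fold change against same-plate mock wells, mean of duplicates, then screen-wide robust z-score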", "reading the numbers": "viability robust z-score: higher = more viable cells than screen typical; caspase robust z-score: higher = more caspase 3/7 activity than screen typical", "hit rule": "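Hits are knock-downs in viability class RV1/RV2 or caspase class CA1/CA2, excluding ones that killed cells in the no-drug cell-count arm; hits then retested with single siRNAs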", "note": "In all, the deposit lists about 18,000 reagents; below is an unselected part. 450 of them (2.5%) were called active. 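Single biological run; no consistent viability z cut-off exists, so the class columns, not z-scores, define the calls.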"}
{"gene": "THOC2 (GeneID 57187)", "viability hit class": "no change", "caspase hit class": "no change", "viability robust z-score": -1.31, "caspase robust z-score": 4.17, "activity call": "inactive"}
{"gene": "PAPOLA (GeneID 10914)", "viability hit class": "no change", "caspase hit class": "no change", "viability robust z-score": 1.22, "caspase robust z-score": 1.72, "activity call": "inactive"}
{"gene": "LAMTOR2 (GeneID 28956)", "viability hit class": "RV2 (reduced viability)", "caspase hit class": "no change", "viability robust z-score": -5.54, "caspase robust z-score": 2.19, "activity call": "active"}
{"gene": "NEU4 (GeneID 129807)", "viability hit class": "no change", "caspase hit class": "no change", "viability robust z-score": -0.13, "caspase robust z-score": -1.21, "activity call": "inactive"}
{"gene": "C9orf153 (GeneID 389766)", "viability hit class": "no change", "caspase hit class": "no change", "viability robust z-score": 1.73, "caspase robust z-score": -0.03, "activity call": "inactive"}
{"gene": "LRPPRC (GeneID 10128)", "viability hit class": "no change", "caspase hit class": "no change", "viability robust z-score": 0.48, "caspase robust z-score": 2.54, "activity call": "inactive"}
{"gene": "CATSPERD (GeneID 257062)", "viability hit class": "no change", "caspase hit class": "no change", "viability robust z-score": 0.22, "caspase robust z-score": -0.58, "activity call": "inactive"}
{"gene": "TBX21 (GeneID 30009)", "viability hit class": "no change", "caspase hit class": "no change", "viability robust z-score": -1.16, "caspase robust z-score": 0.89, "activity call": "inactive"}
{"gene": "PHYHIP (GeneID 9796)", "viability hit class": "no change", "caspase hit class": "no change", "viability robust z-score": -2.8, "caspase robust z-score": 3.25, "activity call": "inactive"}
{"gene": "AFAP1L2 (GeneID 84632)", "viability hit class": "no change", "caspase hit class": "no change", "viability robust z-score": 0.46, "caspase robust z-score": -0.48, "activity call": "inactive"}
{"gene": "ATP6V1H (GeneID 51606)", "viability hit class": "no change", "caspase hit class": "no change", "viability robust z-score": 0.96, "caspase robust z-score": -0.76, "activity call": "inactive"}
{"gene": "EPS8L3 (GeneID 79574)", "viability hit class": "no change", "caspase hit class": "no change", "viability robust z-score": 1.17, "caspase robust z-score": -0.53, "activity call": "inactive"}
{"gene": "CD226 (GeneID 10666)", "viability hit class": "no change", "caspase hit class": "no change", "viability robust z-score": 0.47, "caspase robust z-score": 2.01, "activity call": "inactive"}
{"gene": "SCAF4 (GeneID 57466)", "viability hit class": "no change", "caspase hit class": "no change", "viability robust z-score": 0.06, "caspase robust z-score": -0.68, "activity call": "inactive"}
{"gene": "PLEKHH3 (GeneID 79990)", "viability hit class": "no change", "caspase hit class": "no change", "viability robust z-score": -0.57, "caspase robust z-score": -0.3, "activity call": "inactive"}
{"gene": "RIMBP2 (GeneID 23504)", "viability hit class": "no change", "caspase hit class": "no change", "viability robust z-score": 2.11, "caspase robust z-score": -0.13, "activity call": "inactive"}
{"gene": "LRR1 (GeneID 122769)", "viability hit class": "no change", "caspase hit class": "no change", "viability robust z-score": 0.66, "caspase robust z-score": 2.21, "activity call": "inactive"}
{"gene": "RNF130 (GeneID 55819)", "viability hit class": "no change", "caspase hit class": "no change", "viability robust z-score": 1.04, "caspase robust z-score": 1.42, "activity call": "inactive"}
{"gene": "ZNF133 (GeneID 7692)", "viability hit class": "no change", "caspase hit class": "no change", "viability robust z-score": -0.6, "caspase robust z-score": -1.31, "activity call": "inactive"}
{"gene": "C5orf34 (GeneID 375444)", "viability hit class": "no change", "caspase hit class": "no change", "viability robust z-score": -0.44, "caspase robust z-score": -0.18, "activity call": "inactive"}
{"gene": "KCNG3 (GeneID 170850)", "viability hit class": "no change", "caspase hit class": "no change", "viability robust z-score": 1.68, "caspase robust z-score": -0.72, "activity call": "inactive"}
{"gene": "GALNT10 (GeneID 55568)", "viability hit class": "no change", "caspase hit class": "no change", "viability robust z-score": -2.82, "caspase robust z-score": 3.68, "activity call": "inactive"}
{"gene": "GIMAP7 (GeneID 168537)", "viability hit class": "no change", "caspase hit class": "no change", "viability robust z-score": -1.7, "caspase robust z-score": 0.4, "activity call": "inactive"}
{"gene": "FRAT2 (GeneID 23401)", "viability hit class": "no change", "caspase hit class": "no change", "viability robust z-score": -0.1, "caspase robust z-score": 0.76, "activity call": "inactive"}
{"gene": "CTU1 (GeneID 90353)", "viability hit class": "no change", "caspase hit class": "no change", "viability robust z-score": -0.58, "caspase robust z-score": 0.38, "activity call": "inactive"}
{"gene": "SNX16 (GeneID 64089)", "viability hit class": "no change", "caspase hit class": "no change", "viability robust z-score": 1.44, "caspase robust z-score": 0.16, "activity call": "inactive"}
{"gene": "ING2 (GeneID 3622)", "viability hit class": "no change", "caspase hit class": "CA1 (caspase activation)", "viability robust z-score": -0.8, "caspase robust z-score": 5.63, "activity call": "active"}
